Measured values: the supplement of paper PMC10663445
Where a name gives a salt, the structure may show the parent alone. This is one part of the list. Many values rest on one well or one pass, so single values are uncertain.

The molecules below were run on hsa-miR-132-3p (assay: miR-132-3p level in NGN2-iNs after compound treatment (TMM-normalised, ComBat batch-corrected) (batch-corrected normalised expression (arbitrary units)); higher = higher miR-132-3p expression). Settings: 10 µM; 24 h; human iPSC-derived NGN2 neurons (BR43).
With Cc1cccc(Cc2c[nH]cn2)c1C [Detomidine HCl] the “miR-132-3p level in NGN2-iNs” value was 0.486. With CCCC[N+]1(C)[C@@H]2C[C@@H](OC(=O)[C@H](CO)c3ccccc3)C[C@H]1[C@@H]1O[C@@H]12 (stereo partly drawn) [Butylscopolamine Bromide] the “miR-132-3p level in NGN2-iNs” value was 1.17. In the case of O=c1ccc2cc(O[C@@H]3O[C@H](CO)[C@@H](O)[C@H](O)[C@H]3O)c(O)cc2o1 [Esculin], the “miR-132-3p level in NGN2-iNs” value is reported as 0.0805. CN1CCCCC1Cn1cc(C(=O)c2cc([N+](=O)[O-])ccc2I)c2ccccc21 (stereo not drawn) was tested, and the “miR-132-3p level in NGN2-iNs” value was 0.631. With CC(=O)O[C@H]1C[C@@H]2CC[C@@H]3[C@H](CC[C@@]4(C)[C@H]3C[C@H]([N+]3(C)CCCCC3)[C@@H]4OC(C)=O)[C@@]2(C)C[C@@H]1[N+]1(C)CCCCC1 [Pancuronium dibromide] the “miR-132-3p level in NGN2-iNs” value was -0.672. O=C1C=CC[C@@H]2[C@H]3CCCN4CCC[C@@H](CN12)[C@@H]34 [Sophocarpine] was tested, and the “miR-132-3p level in NGN2-iNs” value was -0.361. O=C(NCC1CCOCC1)c1cnc(Nc2ccc(Cl)cc2Cl)nc1C(F)(F)F was tested, and the “miR-132-3p level in NGN2-iNs” value was -0.543. Cn1c(CCCC(=O)O)nc2cc(N(CCCl)CCCl)ccc21 [Bendamustine HCl] was tested, and the “miR-132-3p level in NGN2-iNs” value was -2.85. In the case of CC(C)(C)c1cc(C=C(C#N)C#N)cc(Br)c1O, the “miR-132-3p level in NGN2-iNs” value is reported as 0.294. With CC(C)[C@]12O[C@H]1[C@@H]1O[C@]13[C@]1(O[C@H]1C[C@H]1C4=C(CC[C@@]13C)C(=O)OC4)[C@@H]2O [Triptolide (PG490)] the “miR-132-3p level in NGN2-iNs” value was -0.37. In the case of CN(C)[C@@H]1C(=O)C(C(N)=O)=C(O)[C@@]2(O)C(=O)C3=C(O)c4c(O)cccc4[C@@](C)(O)[C@H]3C[C@@H]12 [Tetracycline HCl], the “miR-132-3p level in NGN2-iNs” value is reported as -0.758. In the case of CN1[C@@H]2C[C@@H](OC(=O)[C@H](CO)c3ccccc3)C[C@H]1[C@@H]1O[C@@H]12 [Scopolamine HBr], the “miR-132-3p level in NGN2-iNs” value is reported as -0.232. For O=[N+]([O-])C=Cc1ccc2c(c1)OCO2 [MNS (3,4-Methylenedioxy-β-nitrostyrene)], the “miR-132-3p level in NGN2-iNs” value was -0.328. C/C(=C\c1csc(C)n1)[C@@H]1C[C@@H]2O[C@@H]2CCC[C@H](C)[C@H](O)[C@@H](C)C(=O)C(C)(C)[C@@H](O)CC(=O)O1 [Epothilone A] was tested, and the “miR-132-3p level in NGN2-iNs” value was 0.583. For COc1ccc(N(C(=O)Oc2c(C)cccc2C)c2ccnc(Nc3ccc(N4CCN(C)CC4)cc3)n2)c(OC)c1, the “miR-132-3p level in NGN2-iNs” value was 0.911. With CN(C)CCc1ccc(O)cc1 [Hordenine] the “miR-132-3p level in NGN2-iNs” value was -0.392. With O=c1cccc2n1C[C@@H]1CNC[C@H]2C1 [Cytisine] the “miR-132-3p level in NGN2-iNs” value was 0.555. With CN1CCc2cc3c(cc2C1C1OC(=O)c2c1ccc1c2OCO1)OCO3 (single isomer, unassigned; (+)) [(+)-Bicuculline] the “miR-132-3p level in NGN2-iNs” value was -0.277. CC(O)(CS(=O)(=O)c1ccc(F)cc1)C(=O)Nc1ccc(C#N)c(C(F)(F)F)c1 (stereo not drawn) [Bicalutamide] was tested, and the “miR-132-3p level in NGN2-iNs” value was 0.0368. CCOC(=O)c1cncn1[C@H](C)c1ccccc1 [Etomidate] was tested, and the “miR-132-3p level in NGN2-iNs” value was -0.166. O=C(O)c1nn(Cc2ccc(Cl)cc2Cl)c2ccccc12 [Lonidamine] was tested, and the “miR-132-3p level in NGN2-iNs” value was -0.437. For C[C@]12CC[C@H](O)CC1=CC[C@@H]1[C@@H]2CC[C@]2(C)C(=O)CC[C@@H]12 [Dehydroepiandrosterone (DHEA)], the “miR-132-3p level in NGN2-iNs” value was 0.0408. In the case of O=[N+]([O-])c1ncc[nH]1 [Azomycin], the “miR-132-3p level in NGN2-iNs” value is reported as 0.134. For C=C1C[C@@H]2[C@H](CC[C@]3(C)C(=O)CC[C@@H]23)[C@@]2(C)C=CC(=O)C=C12 [Exemestane], the “miR-132-3p level in NGN2-iNs” value was 0.204. With CCCN1CCO[C@@H]2c3cc(O)ccc3OC[C@H]21 the “miR-132-3p level in NGN2-iNs” value was -0.253. For CN(C)[C@@H]1C(=O)C(C(N)=O)=C(O)[C@@]2(O)C(=O)C3=C(O)c4c(O)cccc4[C@@](C)(O)[C@H]3[C@H](O)[C@@H]12 [Oxytetracycline (Terramycin)], the “miR-132-3p level in NGN2-iNs” value was -0.354. In the case of CCc1cc2c(s1)-n1c(C)nnc1CN=C2c1ccccc1Cl [Etizolam], the “miR-132-3p level in NGN2-iNs” value is reported as 1.33. With Cc1sc2c(c1C)C(c1ccc(Cl)cc1)=N[C@@H](CC(=O)OC(C)(C)C)c1nnc(C)n1-2 the “miR-132-3p level in NGN2-iNs” value was -1.14. For Cc1ccccc1-n1c(Cn2ncc3c(N)ncnc32)nc2cccc(C)c2c1=O, the “miR-132-3p level in NGN2-iNs” value was -0.964. In the case of COc1cc(OC)c(OC)cc1C=O [Asaraldehyde], the “miR-132-3p level in NGN2-iNs” value is reported as -0.767. Cc1sc2c(c1C)C(c1ccc(Cl)cc1)=NC(CC(N)=O)c1nnc(C)n1-2 (stereo not drawn) was tested, and the “miR-132-3p level in NGN2-iNs” value was -0.795. With OC(c1ccccc1)(c1ccccc1)C1CCNCC1 [Azacyclonol] the “miR-132-3p level in NGN2-iNs” value was 1.38. With CC(C)NCC(O)c1ccccc1Cl (stereo not drawn) [Clorprenaline HCl] the “miR-132-3p level in NGN2-iNs” value was -2.54. CN1CCN(c2nc3ccccc3nc2Cl)CC1 was tested, and the “miR-132-3p level in NGN2-iNs” value was -0.236. In the case of CN(C)C(=O)Oc1ccc[n+](C)c1 [Pyridostigmine Bromide], the “miR-132-3p level in NGN2-iNs” value is reported as -1.02. CCN(CC)C(=O)c1ccc(C2=CC3(CCNCC3)Oc3cccc(O)c32)cc1 was tested, and the “miR-132-3p level in NGN2-iNs” value was 0.253. For CNCC(O)c1ccc(O)cc1 (stereo not drawn) [Synephrine HCl], the “miR-132-3p level in NGN2-iNs” value was -0.596. In the case of CNCC(O)c1ccc(O)cc1 (stereo not drawn) [Synephrine], the “miR-132-3p level in NGN2-iNs” value is reported as -0.469. CCOc1ccccc1-n1c(C(C)N2CCN(C(=O)COc3ccc(Cl)cc3)CC2)nc2ccccc2c1=O (stereo not drawn) [Erastin] was tested, and the “miR-132-3p level in NGN2-iNs” value was -0.736. In the case of CN1[C@@H]2CC[C@H]1C[C@@H](OC(=O)C(CO)c1ccccc1)C2 (stereo partly drawn) [Atropine sulfate monohydrate], the “miR-132-3p level in NGN2-iNs” value is reported as -0.548. With C[C@]12CCC(=O)C(O)=C1CC[C@@H]1[C@@H]2CC[C@]2(C)C(=O)CC[C@@H]12 [Formestane] the “miR-132-3p level in NGN2-iNs” value was -0.915. Cc1sc2c(c1C)C(c1ccc(Cl)cc1)=N[C@@H](CC(=O)Nc1ccc(O)cc1)c1nnc(C)n1-2 was tested, and the “miR-132-3p level in NGN2-iNs” value was -0.728. In the case of CCC1(c2cccc(O)c2)CCCCN(C)C1 (stereo not drawn) [Meptazinol HCl], the “miR-132-3p level in NGN2-iNs” value is reported as -1.53. For NCCc1c[nH]c2ccc(O)cc12 [Serotonin HCl], the “miR-132-3p level in NGN2-iNs” value was -0.26. In the case of C/C=C(\C)C(=O)N[C@@H](c1ccccc1)[C@@H](O)C(=O)O[C@H]1C[C@@]2(O)[C@@H](OC(=O)c3ccccc3)[C@@H]3[C@]4(OC(C)=O)CO[C@@H]4C[C@H](O)[C@@]3(C)C(=O)[C@H](OC(C)=O)C(=C1C)C2(C)C [Cephalomannine], the “miR-132-3p level in NGN2-iNs” value is reported as -0.9. CCC(COC(=O)c1cc(OC)c(OC)c(OC)c1)(c1ccccc1)N(C)C (stereo not drawn) [Trimebutine] was tested, and the “miR-132-3p level in NGN2-iNs” value was -0.333. CC(=O)OC12COC1CC(O)C1(C)C(=O)C(O)C3=C(C)C(O)CC(O)(C(OC(=O)c4ccccc4)C21)C3(C)C (stereo not drawn) [10-Deacetylbaccatin-III] was tested, and the “miR-132-3p level in NGN2-iNs” value was -0.598. In the case of Cc1cc(C(=O)CN2CCCC2)c(C)n1-c1ccc(F)cc1, the “miR-132-3p level in NGN2-iNs” value is reported as -0.159.
